Values of other authors as cited in US6338296B1, “Release device for slowly releasing sprout inhibitor into packages of potatoes” (priority 1996, dated 2002).
At least one structure is not confirmed: it was looked up by name or label, or the drawing left a doubt.

Tested on: potatoes
Details: alumina particles containing DMN in a box of potatoes, 10±0.5° C., ventilated cooler, 12 weeks; cited from earlier work

Cc1ccc2ccccc2c1C [DMN, dimethyl naphthalene]
sprout inhibition in comparison with an untreated control batch and a Tecnazene-treated batch: evidenced sprout inhibition
